# Measurements taken from the supplement of paper PMC8728848.
# This is one part of the list.
# Legend:
# Test in all cases: glycan array binding signal (z-score within array); higher = stronger binding
# Settings in all cases: glycan notation: IUPAC condensed, linker removed
# Fuc(a1-3)GlcNAc = molecular target: Fuc(a1-3)GlcNAc
# In short: (§1)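 Arrays were curated from the Consortium for Functional Glycomics database, 3228 in total, and kept only where the protein sequence was available. Binding is expressed as a within-array Z-score. This score was averaged across arrays of the same protein sequence at different concentrations or buffers and across linkers, and negative values can be read as non-binding.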
# [1] = molecular target: Fuc(a1-3)[Gal(b1-4)]Glc6S
# In short: as §1
# [2] = molecular target: Fuc(a1-3)[Gal(b1-4)]GlcNAc
# In short: as §1
# [3] = molecular target: Fuc(a1-3)[Gal(b1-4)]GlcNAc(b1-2)Man
# In short: as §1
# [4] = molecular target: Fuc(a1-3)[Gal(b1-4)]GlcNAc(b1-2)Man(a1-3)[Fuc(a1-3)[Gal(b1-4)]GlcNAc(b1-2)Man(a1-6)]Man(b1-4)GlcNAc(b1-4)GlcNAc
# In short: as §1
# [5] = molecular target: Fuc(a1-3)[Gal(b1-4)]GlcNAc(b1-2)Man(a1-3)[Fuc(a1-3)[Gal(b1-4)]GlcNAc(b1-2)Man(a1-6)]Man(b1-4)GlcNAc(b1-4)[Fuc(a1-6)]GlcNAc
# In short: as §1
# [6] = molecular target: Fuc(a1-3)[Gal(b1-4)]GlcNAc(b1-3)Gal(b1-3)[Fuc(a1-4)]GlcNAc
# In short: as §1
# [7] = molecular target: Fuc(a1-3)[Gal(b1-4)]GlcNAc(b1-3)Gal(b1-4)[Fuc(a1-3)]GlcNAc
# In short: as §1
# [8] = molecular target: Fuc(a1-3)[Gal(b1-4)]GlcNAc(b1-3)Gal(b1-4)[Fuc(a1-3)]GlcNAc(b1-3)Gal(b1-4)[Fuc(a1-3)]GlcNAc
# In short: as §1
# [9] = molecular target: Fuc(a1-3)[Gal(b1-4)]GlcNAc(b1-3)GalNAc
# In short: as §1
# [10] = molecular target: Fuc(a1-3)[Gal(b1-4)]GlcNAc(b1-6)GalNAc
# In short: as §1
# [11] = molecular target: Fuc(a1-3)[Gal(b1-4)]GlcNAc(b1-6)[Gal(b1-3)GlcNAc(b1-3)]Gal(b1-4)Glc
# In short: as §1
# [12] = molecular target: Fuc(a1-3)[Gal(b1-4)]GlcNAc6S
# In short: as §1
# [13] = molecular target: Fuc(a1-3)[Gal3S(b1-4)]Glc
# In short: as §1
# [14] = molecular target: Fuc(a1-3)[Gal3S(b1-4)]GlcNAc
# In short: as §1
# [15] = molecular target: Fuc(a1-3)[Gal3S(b1-4)]GlcNAc6S
# In short: as §1
# [16] = molecular target: Fuc(a1-3)[GalNAc(b1-4)]GlcNAc
# In short: as §1
# [17] = molecular target: Fuc(a1-3)[GalNAc(b1-4)]GlcNAc6S
# In short: as §1
# Fuc(a1-4)GlcNAc = molecular target: Fuc(a1-4)GlcNAc
# In short: as §1
# Fuc(b1-3)GlcNAc = molecular target: Fuc(b1-3)GlcNAc
# In short: as §1
# Gal(a1-2)Gal = molecular target: Gal(a1-2)Gal
# In short: as §1
# Gal(a1-3)Gal = molecular target: Gal(a1-3)Gal
# In short: as §1
# Gal(a1-3)Gal(b1-3)GlcNAc = molecular target: Gal(a1-3)Gal(b1-3)GlcNAc
# In short: as §1
# [18] = molecular target: Gal(a1-3)Gal(b1-3)GlcNAc(b1-2)Man
# In short: as §1
# [19] = molecular target: Gal(a1-3)Gal(b1-3)GlcNAc(b1-2)Man(a1-3)[Gal(a1-3)Gal(b1-3)GlcNAc(b1-2)Man(a1-6)]Man(b1-4)GlcNAc(b1-4)GlcNAc
# In short: as §1
# [20] = molecular target: Gal(a1-3)Gal(b1-3)GlcNAc(b1-3)GalNAc
# In short: as §1
# [21] = molecular target: Gal(a1-3)Gal(b1-3)GlcNAc(b1-6)GalNAc
# In short: as §1
# [22] = molecular target: Gal(a1-3)Gal(b1-3)[Fuc(a1-4)]GlcNAc(b1-2)Man(a1-3)[Gal(a1-3)Gal(b1-3)[Fuc(a1-4)]GlcNAc(b1-2)Man(a1-6)]Man(b1-4)GlcNAc(b1-4)GlcNAc
# In short: as §1
# Gal(a1-3)Gal(b1-4)Glc = molecular target: Gal(a1-3)Gal(b1-4)Glc
# In short: as §1
# Gal(a1-3)Gal(b1-4)GlcNAc = molecular target: Gal(a1-3)Gal(b1-4)GlcNAc
# In short: as §1
# [23] = molecular target: Gal(a1-3)Gal(b1-4)GlcNAc(b1-2)Man
# In short: as §1
# [24] = molecular target: Gal(a1-3)Gal(b1-4)GlcNAc(b1-2)Man(a1-3)[Gal(a1-3)Gal(b1-4)GlcNAc(b1-2)Man(a1-6)]Man(b1-4)GlcNAc(b1-4)GlcNAc
# In short: as §1
# [25] = molecular target: Gal(a1-3)Gal(b1-4)GlcNAc(b1-3)GalNAc
# In short: as §1
# [26] = molecular target: Gal(a1-3)Gal(b1-4)GlcNAc(b1-6)GalNAc
# In short: as §1
# [27] = molecular target: Gal(a1-3)Gal(b1-4)[Fuc(a1-3)]GlcNAc
# In short: as §1
# [28] = molecular target: Gal(a1-3)Gal(b1-4)[Fuc(a1-3)]GlcNAc(b1-2)Man(a1-3)[Gal(a1-3)Gal(b1-4)[Fuc(a1-3)]GlcNAc(b1-2)Man(a1-6)]Man(b1-4)GlcNAc(b1-4)GlcNAc
# In short: as §1
# Gal(a1-3)GalNAc = molecular target: Gal(a1-3)GalNAc
# In short: as §1
# [29] = molecular target: Gal(a1-3)[Gal(a1-4)]Gal(b1-4)GlcNAc
# In short: as §1
# [30] = molecular target: Gal(a1-4)Gal(b1-3)GlcNAc(b1-2)Man(a1-3)[Gal(a1-4)Gal(b1-3)GlcNAc(b1-2)Man(a1-6)]Man(b1-4)GlcNAc(b1-4)GlcNAc
# In short: as §1
# Gal(a1-4)Gal(b1-4)Glc = molecular target: Gal(a1-4)Gal(b1-4)Glc
# In short: as §1
# Gal(a1-4)Gal(b1-4)GlcNAc = molecular target: Gal(a1-4)Gal(b1-4)GlcNAc
# In short: as §1
# [31] = molecular target: Gal(a1-4)Gal(b1-4)GlcNAc(b1-2)Man(a1-3)[Gal(a1-4)Gal(b1-4)GlcNAc(b1-2)Man(a1-6)]Man(b1-4)GlcNAc(b1-4)GlcNAc
# In short: as §1
# [32] = molecular target: Gal(a1-4)Gal(b1-4)GlcNAc(b1-3)Gal(b1-4)Glc
# In short: as §1
# Gal(a1-4)GlcNAc = molecular target: Gal(a1-4)GlcNAc
# In short: as §1
# Gal(a1-6)Glc = molecular target: Gal(a1-6)Glc
# In short: as §1
binder,measurement,setting,value
LlpB (Pseudomonas fluorescens) (protein) MGSSHHHHHHSSGLVPRGSHMASSGFRIILFNSANNGTAILPPRNCLVAGQYLESPSKRYKLILEADGNLRLYDNGVPIWVADSSVPYTYVDNRPNTNLVTCFYMQGSAFLVDRVGSRTWATIGDWIDGAADRAYLQVQDDGNVVVVDGVPRWARFGFTPAALPNRGVFYPDHGTGPLPSFPVWSWTF,glycan array binding signal (z-score),Fuc(a1-3)GlcNAc,1.64
same,glycan array binding signal (z-score),[1],0.695
same,glycan array binding signal (z-score),[2],-0.593
same,glycan array binding signal (z-score),[3],0.352
same,glycan array binding signal (z-score),[4],0.125
same,glycan array binding signal (z-score),[5],0.302
same,glycan array binding signal (z-score),[6],-1.01
same,glycan array binding signal (z-score),[7],1.4
same,glycan array binding signal (z-score),[8],-0.948
same,glycan array binding signal (z-score),[9],0.389
same,glycan array binding signal (z-score),[10],0.909
same,glycan array binding signal (z-score),[11],-0.683
same,glycan array binding signal (z-score),[12],-0.288
same,glycan array binding signal (z-score),[13],-0.747
same,glycan array binding signal (z-score),[14],-0.836
same,glycan array binding signal (z-score),[15],0.887
same,glycan array binding signal (z-score),[16],2.26
same,glycan array binding signal (z-score),[17],0.363
same,glycan array binding signal (z-score),Fuc(a1-4)GlcNAc,-1.58
same,glycan array binding signal (z-score),Fuc(b1-3)GlcNAc,1.29
same,glycan array binding signal (z-score),Gal(a1-2)Gal,0.556
same,glycan array binding signal (z-score),Gal(a1-3)Gal,-0.672
same,glycan array binding signal (z-score),Gal(a1-3)Gal(b1-3)GlcNAc,-0.923
same,glycan array binding signal (z-score),[18],0.466
same,glycan array binding signal (z-score),[19],0.541
same,glycan array binding signal (z-score),[20],0.257
same,glycan array binding signal (z-score),[21],-0.613
same,glycan array binding signal (z-score),[22],-0.757
same,glycan array binding signal (z-score),Gal(a1-3)Gal(b1-4)Glc,-0.46
same,glycan array binding signal (z-score),Gal(a1-3)Gal(b1-4)GlcNAc,-0.46
same,glycan array binding signal (z-score),[23],-1.36
same,glycan array binding signal (z-score),[24],0.058
same,glycan array binding signal (z-score),[25],-0.222
same,glycan array binding signal (z-score),[26],0.921
same,glycan array binding signal (z-score),[27],-0.624
same,glycan array binding signal (z-score),[28],0.849
same,glycan array binding signal (z-score),Gal(a1-3)GalNAc,-0.011
same,glycan array binding signal (z-score),[29],1.1
same,glycan array binding signal (z-score),[30],0.188
same,glycan array binding signal (z-score),Gal(a1-4)Gal(b1-4)Glc,-0.983
same,glycan array binding signal (z-score),Gal(a1-4)Gal(b1-4)GlcNAc,1.03
same,glycan array binding signal (z-score),[31],-0.01
same,glycan array binding signal (z-score),[32],-1.38
same,glycan array binding signal (z-score),Gal(a1-4)GlcNAc,-0.064
same,glycan array binding signal (z-score),Gal(a1-6)Glc,-1.01

# Reformatted: results already given.
binder	measurement	setting	value
LlpB (Pseudomonas fluorescens) (protein) MGSSHHHHHHSSGLVPRGSHMASSGFRIILFNSANNGTAILPPRNCLVAGQYLESPSKRYKLILEADGNLRLYDNGVPIWVADSSVPYTYVDNRPNTNLVTCFYMQGSAFLVDRVGSRTWATIGDWIDGAADRAYLQVQDDGNVVVVDGVPRWARFGFTPAALPNRGVFYPDHGTGPLPSFPVWSWTF	glycan array binding signal (z-score)	[14]	-0.836
same	glycan array binding signal (z-score)	[15]	0.887
